This experiment concerns the target T1, recombinant human IL-TIF/IL-22 (human) (UniProt Q9GZX6).
T1 sequence (looked up): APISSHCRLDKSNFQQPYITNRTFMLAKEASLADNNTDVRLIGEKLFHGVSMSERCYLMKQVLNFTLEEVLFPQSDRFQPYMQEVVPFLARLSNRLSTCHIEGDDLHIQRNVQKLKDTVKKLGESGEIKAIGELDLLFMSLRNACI
Put plainly: ELISA, IL-TIF/IL-22 coated on plate, HEK293 supernatant, anti-Ig peroxidase detection. For orientation: ELISA stands for enzyme-linked immunosorbent assay.

Results are given in words; binding and its absence hold for the method and conditions named. Some binding calls cover weakened binding; strength is not graded here.

B1: IL-22R-Ig (Fc fusion, UniProt Q8N6P7 16-228, looked up)
chain: HAPEDPSDLLQHVKFQSSNFENILTWDSGPEGTPDTVYSIEYKTYGERDWVAKKGCQRITRKSCNLTVETGNLTELYYARVTAVSAGGRSATKMTDRFSSLQHTTLKPPDVTCISKVRSIQMIVHPTPTPIRAGDGHRLTLEDIFHDLFYHLELQVNRTYQMHLGGKQREYEFFGLTPDTEFLGTIMICVPTWAKESAPYMCRVKTLPDRTWT
notes: Used as supernatant of transiently transfected HEK293 cells; also called fusion protein of IL-22R and the IgG3 Fc fragment; not shown: IgG3 Fc fragment, made 'in similar fashion' to the murine IgG3 hinge-CH2-CH3 of IL-TIFR-Ig
B1: the binding result is “binds”.
